What all share (test): co-IP
For assay [1], the target named is myc-LRRK2 D1994A (kinase dead) (human) (UniProt Q5S007).
Assay [2] addresses myc-LRRK2 G2019S (human) (UniProt Q5S007).
The target of assay [3] is myc-tagged LRRK2 (wild type) (human) (UniProt Q5S007).
The target of assay [4] is Myc-LRRK2 COR (human) (UniProt Q5S007).
Assay [5] has as its target Myc-LRRK2 Roc (human) (UniProt Q5S007).
In assay [6] the target is Myc-LRRK2 kinase domain (human) (UniProt Q5S007).

The chains behind the UniProt entries cited, without tags or fusion partners. Where a name states a change or a piece, a line headed by the entry shows the natural chain unless it says otherwise. Residues count along the entry.
UniProt Q5S007: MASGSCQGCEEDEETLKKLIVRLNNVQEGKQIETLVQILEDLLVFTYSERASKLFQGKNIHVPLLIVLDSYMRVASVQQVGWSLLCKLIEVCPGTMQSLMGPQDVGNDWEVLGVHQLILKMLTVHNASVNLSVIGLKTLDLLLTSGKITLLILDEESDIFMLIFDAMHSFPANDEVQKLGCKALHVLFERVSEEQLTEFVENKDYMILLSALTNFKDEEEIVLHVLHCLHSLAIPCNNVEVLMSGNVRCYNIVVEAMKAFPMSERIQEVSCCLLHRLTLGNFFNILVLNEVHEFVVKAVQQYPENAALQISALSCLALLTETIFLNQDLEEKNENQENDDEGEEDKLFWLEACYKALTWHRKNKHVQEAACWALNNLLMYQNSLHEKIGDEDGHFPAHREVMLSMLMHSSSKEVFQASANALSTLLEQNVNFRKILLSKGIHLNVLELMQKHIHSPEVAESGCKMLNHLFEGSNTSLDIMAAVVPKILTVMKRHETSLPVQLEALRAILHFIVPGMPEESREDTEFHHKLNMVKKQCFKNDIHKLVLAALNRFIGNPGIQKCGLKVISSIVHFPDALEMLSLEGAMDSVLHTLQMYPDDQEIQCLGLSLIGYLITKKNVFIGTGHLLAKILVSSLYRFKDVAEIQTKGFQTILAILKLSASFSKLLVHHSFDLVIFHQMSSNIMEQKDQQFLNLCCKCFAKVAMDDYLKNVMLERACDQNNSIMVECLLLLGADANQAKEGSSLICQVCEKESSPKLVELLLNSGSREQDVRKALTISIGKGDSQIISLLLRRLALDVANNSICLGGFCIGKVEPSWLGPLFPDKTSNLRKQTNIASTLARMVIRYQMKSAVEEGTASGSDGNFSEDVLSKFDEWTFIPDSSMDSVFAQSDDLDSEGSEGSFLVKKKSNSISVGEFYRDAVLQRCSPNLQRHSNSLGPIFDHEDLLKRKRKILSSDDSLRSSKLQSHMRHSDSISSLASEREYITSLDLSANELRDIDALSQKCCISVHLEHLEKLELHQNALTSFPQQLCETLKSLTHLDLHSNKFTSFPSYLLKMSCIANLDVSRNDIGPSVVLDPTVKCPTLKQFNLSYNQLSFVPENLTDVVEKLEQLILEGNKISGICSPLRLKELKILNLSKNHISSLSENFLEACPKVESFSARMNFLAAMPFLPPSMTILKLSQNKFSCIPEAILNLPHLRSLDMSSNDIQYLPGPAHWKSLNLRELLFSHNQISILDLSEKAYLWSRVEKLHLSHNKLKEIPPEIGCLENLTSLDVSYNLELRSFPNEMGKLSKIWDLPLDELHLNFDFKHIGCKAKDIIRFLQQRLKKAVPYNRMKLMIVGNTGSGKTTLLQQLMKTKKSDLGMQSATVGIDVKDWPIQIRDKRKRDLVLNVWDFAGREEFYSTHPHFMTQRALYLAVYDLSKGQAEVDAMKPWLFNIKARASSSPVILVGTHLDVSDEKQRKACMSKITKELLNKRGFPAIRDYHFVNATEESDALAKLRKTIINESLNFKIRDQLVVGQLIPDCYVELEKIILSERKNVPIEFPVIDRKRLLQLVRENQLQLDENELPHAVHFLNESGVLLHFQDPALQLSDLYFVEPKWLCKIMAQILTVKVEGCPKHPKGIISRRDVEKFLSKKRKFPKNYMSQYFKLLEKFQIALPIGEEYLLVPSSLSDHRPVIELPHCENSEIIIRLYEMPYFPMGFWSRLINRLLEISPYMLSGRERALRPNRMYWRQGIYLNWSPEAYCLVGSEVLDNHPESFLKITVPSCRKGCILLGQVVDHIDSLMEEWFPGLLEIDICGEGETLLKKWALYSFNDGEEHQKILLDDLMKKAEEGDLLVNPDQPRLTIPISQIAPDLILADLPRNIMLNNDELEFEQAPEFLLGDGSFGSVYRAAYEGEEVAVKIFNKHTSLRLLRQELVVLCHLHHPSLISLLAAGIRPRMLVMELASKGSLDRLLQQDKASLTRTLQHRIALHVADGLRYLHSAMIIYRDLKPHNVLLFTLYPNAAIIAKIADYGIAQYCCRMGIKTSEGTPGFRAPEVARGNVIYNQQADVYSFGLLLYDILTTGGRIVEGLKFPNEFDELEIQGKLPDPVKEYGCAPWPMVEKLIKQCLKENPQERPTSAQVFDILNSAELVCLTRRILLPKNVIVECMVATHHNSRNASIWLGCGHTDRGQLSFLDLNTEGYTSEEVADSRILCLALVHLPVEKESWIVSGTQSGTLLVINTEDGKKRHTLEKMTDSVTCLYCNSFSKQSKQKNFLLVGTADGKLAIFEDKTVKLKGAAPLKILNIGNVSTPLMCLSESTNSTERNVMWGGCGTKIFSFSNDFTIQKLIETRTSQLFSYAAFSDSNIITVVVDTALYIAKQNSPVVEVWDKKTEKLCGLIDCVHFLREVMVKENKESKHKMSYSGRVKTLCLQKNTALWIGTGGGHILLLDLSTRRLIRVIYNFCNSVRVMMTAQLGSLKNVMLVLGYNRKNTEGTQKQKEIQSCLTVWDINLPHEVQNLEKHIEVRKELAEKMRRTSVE
Myc-LRRK2 Roc: residues 1328-1511 of Q5S007
Myc-LRRK2 COR: residues 1546-1740 of Q5S007
Myc-LRRK2 kinase domain: residues 1879-2138 of Q5S007
UniProt Q9UBN7: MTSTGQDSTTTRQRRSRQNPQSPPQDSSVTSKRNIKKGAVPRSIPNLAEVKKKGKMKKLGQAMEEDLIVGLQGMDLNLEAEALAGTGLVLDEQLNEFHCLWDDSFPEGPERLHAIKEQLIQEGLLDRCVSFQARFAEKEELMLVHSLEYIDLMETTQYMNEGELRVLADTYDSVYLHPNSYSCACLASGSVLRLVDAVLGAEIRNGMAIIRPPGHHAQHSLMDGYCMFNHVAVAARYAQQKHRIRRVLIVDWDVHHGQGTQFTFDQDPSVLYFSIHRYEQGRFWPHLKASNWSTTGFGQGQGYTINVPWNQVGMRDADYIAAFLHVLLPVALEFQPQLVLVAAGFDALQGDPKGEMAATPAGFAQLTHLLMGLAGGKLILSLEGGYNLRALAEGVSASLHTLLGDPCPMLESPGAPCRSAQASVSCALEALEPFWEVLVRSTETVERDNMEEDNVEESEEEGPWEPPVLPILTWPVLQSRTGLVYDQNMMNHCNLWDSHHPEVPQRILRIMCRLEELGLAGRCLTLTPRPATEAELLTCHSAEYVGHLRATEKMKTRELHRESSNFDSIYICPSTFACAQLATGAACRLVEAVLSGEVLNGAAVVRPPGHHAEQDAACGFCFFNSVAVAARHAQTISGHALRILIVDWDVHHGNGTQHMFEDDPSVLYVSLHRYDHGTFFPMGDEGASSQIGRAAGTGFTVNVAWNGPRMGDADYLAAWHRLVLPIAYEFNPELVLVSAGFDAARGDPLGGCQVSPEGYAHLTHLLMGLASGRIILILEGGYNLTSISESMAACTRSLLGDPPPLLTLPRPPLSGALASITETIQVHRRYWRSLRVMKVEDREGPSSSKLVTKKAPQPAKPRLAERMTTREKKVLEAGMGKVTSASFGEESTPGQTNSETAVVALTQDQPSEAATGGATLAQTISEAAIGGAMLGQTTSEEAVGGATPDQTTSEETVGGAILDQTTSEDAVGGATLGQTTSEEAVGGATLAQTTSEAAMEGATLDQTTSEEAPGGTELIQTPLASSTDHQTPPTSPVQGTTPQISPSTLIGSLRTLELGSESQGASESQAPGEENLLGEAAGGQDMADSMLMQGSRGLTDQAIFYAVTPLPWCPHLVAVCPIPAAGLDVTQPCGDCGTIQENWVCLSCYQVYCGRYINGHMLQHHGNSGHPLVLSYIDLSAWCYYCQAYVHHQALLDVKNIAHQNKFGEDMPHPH

Results are given in words; binding and its absence hold for the method and conditions named. Binding seen in cells or lysates may run through a third protein. Some entries that bind do so weakly or less than the wild type.

On to “FLAG-HDAC6 full-length (wild type) (from UniProt Q9UBN7 1-1215) (enzyme)”, for which the binding result in assay [1], in assay [2] and in assay [3] was “binds” in each case.
As to “untagged HDAC6 (from UniProt Q9UBN7 1-1215) (enzyme)”, the binding result in assay [4] is on record as “binds weakly”; in assay [5], “binds”; in assay [6], “no binding”; in assay [3], “binds”.

These data come from doi:10.1101/554881.
